Results taken from patent publication US20090054392A1, “NAPHTHYLPYRIMIDINE, NAPHTHYLPYRAZINE AND NAPHTHYLPYRIDAZINE ANALOGS AND THEIR USE AS AGONISTS OF THE WNT-BETA-CATENIN CELLULAR MESSAGING SYSTEM” (Wyeth, priority 2007, published 2009).
Values joined by “and” are separate entries in the source; they are usually repeats but may differ in a detail not shown here. Equal entries are not always repeated. The name of at least one read-out is uncertain.

System: Dkk1-LRP5-TCF-Luciferase
Test: Functional Dkk1-LRP5-TCF-Luciferase Assay in U2OS Cells
Details: maximum fold induction over DMSO control

Row | SMILES | A = MAX FOLD Induction/DMSO CONTROL
1 | c1ccc2cc(-c3ccnc(N4CCC(CN5CCCCC5)CC4)n3)ccc2c1 [4-(2-naphthyl)-2-[4-(piperidin-1-ylmethyl)piperidin-1-yl]pyrimidine] | 3.4 fold and 3.290 fold
2 | c1ccc2cc(-c3ccnc(N4CCC(CN5CCCC5)CC4)n3)ccc2c1 [4-(2-naphthyl)-2-[4-(pyrrolidin-1-ylmethyl)piperidin-1-yl]pyrimidine] | 3.6 fold and 3.393 fold
